PubChem BioAssay AID1259272, Sanger Institute, 2017
This is one part, drawn at random, of 794 reagents tested. Over the whole deposit, 7 (0.88%) were called active. 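Essential calls reflect knock-down without drug only, not synergy with drugs; drug exposure length not given.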 Unmarked entries are inactive. Not all columns of the deposit are shown. Not given: the amount of reagent, the time to read-out.

Aim: 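Kinome-wide siRNA search for genes whose silencing boosts targeted drug effects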 (primary screen)
System: SW1116 human colorectal cancer cells
Reagent: siRNA pool against human genes
Conditions: anchor drugs BYL719 (1 µM), cetuximab (5 µg/ml) or trametinib (10 nM), or DMSO vehicle; exposure length not given
Measurement: 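Replicate-averaged viability versus control-pool wells, with a robust z-score for siRNA alone and a per-drug synergy score (BYL719, cetuximab, trametinib)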
Direction: viability z-score, no drug: higher = more cells remaining; strongly negative means essential gene
Call rule: 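Called essential if the drug-free knock-down gives a robust viability z-score below -3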
Calls: active = essential (knock-down alone); inactive = no change

With knock-down of ASPM, the screen gave viability z-score, no drug 0.0192. After knock-down of TNIK, the screen gave viability z-score, no drug -0.656. For FOXP1 the deposit lists viability z-score, no drug -1.01. After knock-down of NME2, the record shows viability z-score, no drug 0.842. For GAK, the values are viability z-score, no drug 0.842. With knock-down of IKBKB, the record shows viability z-score, no drug 0.842.

After knock-down of UCKL1, the screen gave viability z-score, no drug -0.288. Depletion of RELA gave: viability z-score, no drug 0.842. With knock-down of MTOR, the screen gave viability z-score, no drug 0.449. With knock-down of PRKAA1, the record shows viability z-score, no drug 0.842. After knock-down of PRP4K, the record shows viability z-score, no drug -0.111. After knock-down of STK32B the results were viability z-score, no drug 0.753.

Depletion of DYRK1A gave: viability z-score, no drug -0.919. CDK19 scored viability z-score, no drug -1.61. For IDH2 the deposit lists viability z-score, no drug 0.0115. For CASP8 the deposit lists viability z-score, no drug 0.842. After knock-down of DAPK1, the record shows viability z-score, no drug -0.419. Against GRK4 the deposit lists viability z-score, no drug -0.141.

DCLK3 showed viability z-score, no drug 0.507. Against NEK2, the entry reads viability z-score, no drug -0.418. FASTK showed viability z-score, no drug 0.842. With knock-down of BPTF the results were viability z-score, no drug -0.763. For AK4, the entry reads viability z-score, no drug 0.573. For TAOK3, the values are viability z-score, no drug -0.257.

Against INSR, the entry reads viability z-score, no drug 0.842. Against AK5 the deposit lists viability z-score, no drug 0.842. Against MPP1 the deposit lists viability z-score, no drug 0.212. Against BMX, the values are viability z-score, no drug 0.321. After knock-down of NUP107, the screen gave viability z-score, no drug -1.16. With knock-down of JAK3 the results were viability z-score, no drug 0.842.

SGK3 scored viability z-score, no drug -0.756. PMVK showed viability z-score, no drug 0.842. KDR gave viability z-score, no drug -0.0198. Depletion of MASTL came out at: viability z-score, no drug -0.654. TCF7L2 scored viability z-score, no drug 0.842. With knock-down of CDKL2, the record shows viability z-score, no drug -0.474.

Copied from the listing, 5 entries:
GRK4: viability z-score, no drug = -0.141
DCLK3: viability z-score, no drug = 0.507
NEK2: viability z-score, no drug = -0.418
FASTK: viability z-score, no drug = 0.842
BPTF: viability z-score, no drug = -0.763
